Reference: paper PMC5762634

Sequences of proteins named here, by UniProt entry; tags and fusion partners are left off. A change or cut given only in a name is not applied to a line headed by its entry.
UniProt P51858: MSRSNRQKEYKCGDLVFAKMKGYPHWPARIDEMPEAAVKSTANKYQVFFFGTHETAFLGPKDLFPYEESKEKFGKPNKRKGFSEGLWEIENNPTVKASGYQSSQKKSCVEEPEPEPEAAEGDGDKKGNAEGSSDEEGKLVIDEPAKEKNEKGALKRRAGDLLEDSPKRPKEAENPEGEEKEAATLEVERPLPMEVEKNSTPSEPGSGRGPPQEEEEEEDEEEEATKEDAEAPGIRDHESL

Target: HDGF full-length (human) (UniProt P51858)
Test: solid-phase binding assay (preformed HDGF-DNA complex shows reduced NCL binding)
Conditions: nucleolin-coated plate; SEC: 20 mM Tris-HCl pH 7.5, 5 mM EDTA, 5 mM beta-ME, no added salt; protein:DNA 1:1, incubated overnight at 4 C; recombinant protein; residues 1-240

## CAGGCTGGTCTTGAA (double strand) [15-bp SMYD1]
  binding result: binds

Construct, isoform or probe ends are uncertain for at least one entry. At least one verdict was read from the data and is not stated in words by the source.
